These are yes or no findings as the source states them, for the method shown. Sequences can lack the tags named with a protein.
How the values were obtained:
[1] = target: TCTP His76Ala-His77Ala mutant, untagged recombinant (human) (UniProt P13693); assay: SEC; 16/60 Superdex 75, 50 mM Tris-HCl pH 7.8, 250 mM NaCl, 1 mM EDTA; no ligand; both purified
[2] = target: TCTP His76Ala-His77Ala mutant, untagged recombinant (human) (UniProt P13693); assay: SEC; 16/60 Superdex 75 equilibrated with 50 mM Tris-HCl pH 7.8, 250 mM NaCl, 1 mM hemin; protein pre-incubated with hemin for 15 min; pooled dimer fractions re-run with 50 mM CaCl2 shifted back mainly to monomer; both purified

B1: TCTP His76Ala-His77Ala mutant, untagged recombinant (protein, UniProt P13693 1-172)
chain: MIIYRDLISHDEMFSDIYKIREIADGLCLEVEGKMVSRTEGNIDDSLIGGNASAEGPEGEGTESTVITGVDIVMNAALQETSFTKEAYKKYIKDYMKSIKGKLEEQRPERVKPFMTGAAEQIKHILANFKNYQFFIGENMNPDGMVALLDYREDGVTPYMIFFKDGLEMEKC
Q: What does the source list for B1?
A: binding [1]: no binding; binding [2]: no binding

Source: PMC4232476
